± gives the standard deviation of the averaged measurements. Values are relative to the signal before dosing, not to a vehicle control; the signal also falls without drug.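 Fibroblast labels denote human fibroblasts, mainly primary ones from uterus (C12385, HUF), lung (H6013), bone (Hs27A), adrenal (HADF) and skin (WS1), plus mammary HMF and breast cancer-associated Hs343T. Cancer cells are basal-like or mesenchymal-like triple-negative breast cancer lines. A hit is a response shift exceeding 3x replicate standard deviation. The tissue of the other fibroblasts is not given here.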
Test system: MDAMB436
Experiment: relative JC-1 red fluorescence (viability) vs pre-drug, coculture with fibroblast (fraction); higher = more viable cancer cells
Conditions: 100 µM
Protocol: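 JC-1 labelled TNBC cells cocultured 1:1 (1,500 cells each) with CellTrace Violet stained primary or stromal fibroblasts in 384-well plates in FluoroBrite medium, treated with one of 42 anticancer drugs at 0.1, 1, 10 or 100 uM. JC-1 red fluorescence (mitochondrial integrity in cancer cells only) was read by plate reader every 8 h for 72 h. Values are normalised to each well's pre-drug value. The stock of one drug was tenfold lower, so its dose labels may be too high.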

CCCCCOC(=O)Nc1nc(=O)n([C@@H]2O[C@H](C)[C@@H](O)[C@H]2O)cc1F [Capecitabine]
relative JC-1 red fluorescence
Conditions	8 h	16 h	24 h	32 h	40 h	48 h	56 h	64 h	72 h
coculture fibroblast: C12385	0.8406 ± 0.0052	0.73063 ± 0.00027	0.7216 ± 0.0008	0.6448 ± 0.0051	0.596 ± 0.0087	0.575 ± 0.0083	0.555 ± 0.0086	0.5328 ± 0.0037	0.523 ± 0.0093
coculture fibroblast: H6013	0.891 ± 0.023	0.776 ± 0.0039	0.7618 ± 0.0073	0.7467 ± 0.005	0.732 ± 0.0073	0.7544 ± 0.0029	0.7062 ± 0.0041	0.693 ± 0.0079	0.651 ± 0.0091
coculture fibroblast: H6019	0.77191 ± 0.00068	0.706 ± 0.036	0.701 ± 0.036	0.642 ± 0.038	0.61 ± 0.044	0.595 ± 0.04	0.561 ± 0.035	0.53 ± 0.043	0.508 ± 0.039
coculture fibroblast: H6076	0.7904 ± 0.0046	0.591 ± 0.01	0.6183 ± 0.0055	0.59133 ± 0.00034	0.574 ± 0.0062	0.561 ± 0.016	0.574 ± 0.0096	0.576 ± 0.013	0.575 ± 0.016
coculture fibroblast: H6231	0.77 ± 0.029	0.697 ± 0.048	0.649 ± 0.068	0.588 ± 0.061	0.55 ± 0.054	0.519 ± 0.052	0.504 ± 0.047	0.488 ± 0.039	0.467 ± 0.035
coculture fibroblast: HADF	0.855 ± 0.019	0.747 ± 0.018	0.71357 ± 0.00071	0.67329 ± 0.00013	0.6485 ± 0.0029	0.6593 ± 0.005	0.597 ± 0.0084	0.582 ± 0.016	0.538 ± 0.023
coculture fibroblast: HCFa	0.84 ± 0.027	0.752 ± 0.05	0.723 ± 0.07	0.696 ± 0.069	0.667 ± 0.078	0.676 ± 0.079	0.612 ± 0.072	0.602 ± 0.073	0.551 ± 0.074
coculture fibroblast: HCPF	0.7782 ± 0.0061	0.627 ± 0.096	0.6308 ± 0.00088	0.5766 ± 0.0026	0.544 ± 0.0095	0.5142 ± 0.0015	0.49863 ± 0.0003	0.481 ± 0.013	0.468 ± 0.0059
coculture fibroblast: HHSteC	0.855 ± 0.029	0.783 ± 0.018	0.757 ± 0.032	0.716 ± 0.027	0.703 ± 0.036	0.707 ± 0.039	0.647 ± 0.04	0.623 ± 0.031	0.577 ± 0.037
coculture fibroblast: HMF	0.797 ± 0.034	0.6199 ± 0.0017	0.589 ± 0.023	0.545 ± 0.027	0.52 ± 0.015	0.485 ± 0.015	0.48 ± 0.0065	0.4733 ± 0.0027	0.462 ± 0.0047
coculture fibroblast: HPFa	0.901 ± 0.012	0.807 ± 0.018	0.785 ± 0.016	0.744 ± 0.025	0.729 ± 0.024	0.734 ± 0.0083	0.653 ± 0.016	0.619 ± 0.012	0.544 ± 0.0096
coculture fibroblast: HUF	0.859 ± 0.0086	0.739 ± 0.024	0.715 ± 0.024	0.633 ± 0.018	0.57 ± 0.014	0.544 ± 0.021	0.514 ± 0.015	0.494 ± 0.0056	0.4882 ± 0.001
coculture fibroblast: Hs5	0.8364 ± 0.0011	0.689 ± 0.032	0.6471 ± 0.0054	0.575 ± 0.0068	0.55 ± 0.012	0.507 ± 0.016	0.5 ± 0.0066	0.4704 ± 0.0013	0.4445 ± 0.0038
coculture fibroblast: Hs27A	0.888 ± 0.023	0.838 ± 0.034	0.8015 ± 0.0025	0.7785 ± 0.0018	0.7516 ± 0.0023	0.799 ± 0.018	0.712 ± 0.011	0.693 ± 0.014	0.626 ± 0.021
coculture fibroblast: Hs343T	0.803 ± 0.0096	0.614 ± 0.023	0.614 ± 0.043	0.574 ± 0.047	0.559 ± 0.057	0.532 ± 0.059	0.529 ± 0.072	0.515 ± 0.068	0.515 ± 0.069
coculture fibroblast: WS1	0.789 ± 0.041	0.733 ± 0.011	0.73 ± 0.026	0.664 ± 0.044	0.631 ± 0.06	0.615 ± 0.063	0.604 ± 0.072	0.577 ± 0.083	0.562 ± 0.092
